# PubChem BioAssay AID1224830, NIAID | 2016
# Assay: 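Regulators of TLR4 signalling towards TNF-alpha in macrophage-like cells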 (primary screen)
# System: human THP-1 monocytic leukaemia cells, TNF dual-luciferase reporter clone, PMA-differentiated to macrophage-like cells
# Reagents: siRNA pool against human genes, 50 nM
# Timing: LPS for 4 h, given about 3 days after siRNA transfection
# Treatment: bacterial LPS (TLR4 ligand), 10 ng/ml
# Read-out: 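TNF firefly reporter luminescence divided by renilla, normalised to the plate median, then turned into a robust z-score for each replicate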
# Scale: TNF reporter robust z-score: higher = stronger TNF reporter response to LPS
# Hit rule: 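a well is active when its z-score exceeds 2.8 or falls below -1.5; control wells carry no call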
# In all, the deposit lists about 18,000 reagents; this is a part drawn at random. In the full data, about 2,900 (16%) are marked active. 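Calls are made per well; low scores hint the gene aids the LPS response, high scores that it dampens it.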 Unmarked entries are inactive. Repeated entries: four replicate wells of each siRNA pool. No sequences are given here.
gene knocked down,TNF reporter robust z-score
GDPD4,4.09 (active)
GDPD4,3.08 (active)
GDPD4,1.62
GDPD4,0
NSUN7,1.63
NSUN7,1.46
NSUN7,0.93
NSUN7,1.32
LAGE3,-1.15
LAGE3,-1.05
LAGE3,-1.5
LAGE3,-0.98
P2RY12,0.76
P2RY12,0.11
P2RY12,0.39
P2RY12,1.03

Continued (4 carried over from the part before).
gene knocked down,TNF reporter robust z-score
P2RY12,0.76
P2RY12,0.11
P2RY12,0.39
P2RY12,1.03
FCRL1,1.52
FCRL1,0.39
FCRL1,1.66
FCRL1,0.19
BPNT2,1.92
BPNT2,2.91 (active)
BPNT2,1.11
BPNT2,2.03
MELK,-0.11
MELK,0.14
MELK,0.96
MELK,1.56
KRTAP5-10,-0.67
KRTAP5-10,0.35
KRTAP5-10,-0.29
KRTAP5-10,0.24
DGAT2L6,-0.45
DGAT2L6,-0.36
DGAT2L6,-0.17
DGAT2L6,-0.1
CCRL2,-0.5
CCRL2,-0.54
CCRL2,-0.59
DEFB116,-1.13
DEFB116,-0.86
DEFB116,-1.69 (active)
DEFB116,-0.16
MARVELD3,1.05
MARVELD3,-0.58
MARVELD3,-0.07
MARVELD3,0.04
